According to US8551921B2, “Method for determining the toxicity of an environmental or chemical sample” (priority 2000, dated 2013):

What follows are compounds tested on 11 microbial strains (assay: MARA plate Example 3, overall (11 microbial strains) and data base comparison). Details: similarity value between the fingerprint of the unknown compound of Example 3 and that of the named known compound.
Format: cell-based

Compound | Highest similarity of toxic fingerprint to known compounds in data base
OO [Hydrogen peroxide] | 0.30
OCCO [Ethylene Glycol] | 0.10
Oc1ccccc1 [Phenol] | 0.60
